System: Staphylococcus aureus
Test: Antibacterial activity against Staphylococcus aureus expressing NorA by double-dilution technique
Assay type: functional
Procedure, shortened: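 Double-dilution series of each compound against each strain, reported as MIC. Runs done in duplicate or triplicate.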

CCC[C@@H]1C[C@@H](C(=O)N[C@@H]([C@H]2O[C@H](SC)[C@H](O)[C@@H](O)[C@H]2O)[C@H](C)Cl)N(C)C1 [CLINDAMYCIN]
MIC: < 0.3 mg/L

Source: ChEMBL document CHEMBL2417431, “Synthesis and evaluation of hetero- and homodimers of ribosome-targeting antibiotics: antimicrobial activity, in vitro inhibition of translation, and drug resistance” (J Med Chem, 2013)
